## Primary screen of a compound library

Source: ChEMBL document CHEMBL3988442, “University of Dundee, Small-Polar-MMV Screening Library” (2021).

Results are given as percent effect. The record does not define 0% and 100%; most values in the screen are far below 50% and negative numbers occur (in some assays of this library far below -100). This is an unselected part of the compounds tested. Two or more numbers in one place are separate tests of the same structure; such repeats can differ widely.

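Viability assay of Plasmodium falciparum sporozoites; the read-out is not stated. The concentration is filed as 10 mM, unlikely as a test dose, so the dose is not known. The record gives no direction; compounds that gave an IC50 in retests scored well above the rest, so higher reads as lower viability. Strong results were mostly tested again. Of about 34,000 compounds tested this way, about 280 (0.84%) reached 50% or more in at least one test.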

- Cc1n[nH]cc1CNC1(c2ccc(Br)cc2)CC1 : -18.31%
- CN(Cc1ccccc1)c1ccc(C(F)(F)F)cn1 : -3.432%
- [H][C@@]12COC[C@H](c3nc(C)no3)[C@]1([H])CN(C(=O)COCC)C2 : -6.764%
- Oc1cc(C2CCCCN2Cc2cccs2)nc(-c2ccncc2)n1 (centres unmarked) : 14.05%
- O=C(NCCNc1ncccn1)C1CCN(C(=O)c2ccoc2)CC1 : -6.2%
- COCCn1c2c(ccc1=O)CC(NS(C)(=O)=O)CC2 (centres unmarked) : 13.96%
- NC1CCc2c(ccc(=O)n2Cc2ccncc2)C1 (centres unmarked) : 5.304%
- CN(C)[C@@H]1CCN(C(=O)c2cccc(C#N)c2)[C@H]1Cc1cnn(C)c1.O=C(O)C(F)(F)F : -6.443%
- Cn1cc(CNC2CCCN(Cc3noc(C4CC4)n3)C2)cn1 (centres unmarked) : 0.8244%
- O=C(Nc1ccc(F)cc1)NC1(CCO)CCOCC1 : -11.9%
- COCc1cc(O)nc(C2CCCN(Cc3cc(OC)ccc3F)C2)n1 (centres unmarked) : 9.123%
- [H][C@@]12CN(C(=O)C3CCOCC3)C[C@@]1([H])N(CC)C(=O)CO2 : 7.744% and -0.7728% and 1.613%
- CCOc1ccc(CNC(C)c2ccc3[nH]c(=O)[nH]c3c2)cc1 (centres unmarked) : 20.77%
- CNC(=O)c1ccc(C(=O)N2CCC(Nc3cccnn3)CC2)cn1 : -0.8503%
- Cc1cc(C2CCCN2CC(=O)N(CCC#N)c2ccccc2F)on1 (centres unmarked) : 8.104%
- O=C(CCc1ccco1)N1CCC(Nc2cccnn2)CC1 : 13.56%
- NC(=O)CN1CCC(c2cc(C(F)(F)F)n3ccnc3n2)CC1 : 8.536%
- CN(Cc1cccc(Cl)c1)S(=O)(=O)N1CCOCC1 : -7.103%
- Cc1ccnn1CCC(=O)N1CCCC1c1cc2cccnc2[nH]1.Cl (centres unmarked) : 7.943%
- COc1ccc(C[C@H]2CN(C(=O)c3ccc(C)nc3)CC[C@@H]2OC)cc1.O=C(O)C(F)(F)F : 9.194%
- Cc1c[nH]nc1C1CCCN(c2cnccn2)C1 (centres unmarked) : 0.7122%
- O=C(O)C(F)(F)F.O=C1COC2(CCN(C(=O)c3ccco3)CC2)CN1Cc1ccccn1 : -2.489%
- CCOC(=O)c1ccc(NC(=O)Cn2cc(I)cn2)cc1 : -22.37% and -20.15% and -13.35%
- CC(C)c1ccc(OCC(=O)NS(=O)(=O)c2cccnc2)cc1 : 3.722%
- CCN(C)S(=O)(=O)NCC1CCN(Cc2ccccc2F)C1 (centres unmarked) : -23.86% and -13.24%
- COc1ccc(C)cc1C(=O)N1CCCC(n2nc(C)nc2C)C1 (centres unmarked) : 13.7%
- N#CC1(C(=O)N2CCN(Cc3ccon3)CC2)CCC1 : 4.688%
- Cn1cc(Cl)cc1C(=O)N1CCCN(Cc2nccn2C)CC1 : 12.67%
- Cc1ccc(S(=O)(=O)Nc2c(C)nn(C)c2C)cc1C : 7.929%
- Cc1nc2c(c(NC(C)c3nnn[nH]3)n1)Cc1ccccc1OC2 (centres unmarked) : 2.686%
- O=C(O)C(F)(F)F.[H][C@@]12CCCO[C@]1([H])[C@H](Oc1ccccn1)CN2S(=O)(=O)N(C)C : -5.251%
- Cc1cccc(N2CCN(CCNC(=O)c3ccnn3C)CC2)c1 : -1.353%
- [H][C@]12CC[C@](O)(CC1)C(COC)N2C(=O)c1ccc2c(c1)OCCCO2 (some centres unmarked) : -28.88%
- COCC1CN(Cc2ccsc2)Cc2nn(C)cc21.O=C(O)C(F)(F)F (centres unmarked) : -7.047%
- COCCC(=O)N1CCn2c(COCC3CC3)cnc2C1C (centres unmarked) : 6.6%
- Fc1ccc(NCc2nnsc2Cl)c(OC(F)F)c1 : -0.1304%
- Cl.c1cc(NCc2ccncc2)nc(C2CCCNC2)c1 (centres unmarked) : 7.166%
- CCOC(C)c1nc(CN2CCC(CNC(C)=O)CC2)cs1 (centres unmarked) : 3.647%
- Cc1nc(C)c(C(=O)N2CCc3nnc(C4CCCCN4C)n3CC2)s1 (centres unmarked) : 6.214%
- C[C@@H]1CN(C2CCN(c3ccccc3)CC2)CC[C@@]1(O)C1CCOCC1 : -13.83%
- CCOc1ccnc(N2CCN(C(=O)c3cc[nH]n3)CC2)n1 : 2.07%
- O=C1NCCN1C1CCN(CCc2cccs2)CC1 : 2.001% and -12.25% and -3.994%
- Cn1cc(-c2nc(CN3CCN(CCO)CC3)cs2)cn1 : -2.638%
- O=C(O)C(F)(F)F.c1cc(CN2CCC3(CCOCC3COCC3CC3)CC2)co1 (centres unmarked) : -0.1711%
- CC(C)CCN1CCc2[nH]nc(C(=O)N3CCCC3C)c2C1.O=C(O)C(F)(F)F (centres unmarked) : -11.8%
- CCn1cnnc1CNC(=O)CCC(=O)c1ccc2c(c1)OCCO2 : 15.84%
- COc1ccc(CCCC(=O)N2CCCC(n3cccn3)C2)cc1 (centres unmarked) : -0.8919%
- Cc1cccc(SC2CCN(C(=O)CCNS(C)(=O)=O)CC2)c1 : -0.4579%
- COCCCNC(=O)CN(C)C1CCCN(c2cccnn2)C1 (centres unmarked) : -1.001%
- CCn1[nH]c(C)c2c(C(F)(F)F)cc(=O)nc1-2 : -16.97%
- CC(=O)N1CCC2(CC1)C(=O)N(C)c1ccc(F)cc12 : -4.174%

Some entries from above, unchanged:

With Oc1cc(C2CCCCN2Cc2cccs2)nc(-c2ccncc2)n1 (centres unmarked) the screen gave 14.05%.
With Cc1nc(C)c(C(=O)N2CCc3nnc(C4CCCCN4C)n3CC2)s1 (centres unmarked) the screen gave 6.214%.
With Cn1cc(Cl)cc1C(=O)N1CCCN(Cc2nccn2C)CC1 the screen gave 12.67%.
With COCC1CN(Cc2ccsc2)Cc2nn(C)cc21.O=C(O)C(F)(F)F (centres unmarked) the screen gave -7.047%.
With O=C1NCCN1C1CCN(CCc2cccs2)CC1 the screen gave 2.001% and -12.25% and -3.994%.
With NC1CCc2c(ccc(=O)n2Cc2ccncc2)C1 (centres unmarked) the screen gave 5.304%.